These results are taken from PMC8386835.

In test [1] the target is T1, MYC-MTL5 (mouse) (UniProt Q9WTJ6).
T1 sequence: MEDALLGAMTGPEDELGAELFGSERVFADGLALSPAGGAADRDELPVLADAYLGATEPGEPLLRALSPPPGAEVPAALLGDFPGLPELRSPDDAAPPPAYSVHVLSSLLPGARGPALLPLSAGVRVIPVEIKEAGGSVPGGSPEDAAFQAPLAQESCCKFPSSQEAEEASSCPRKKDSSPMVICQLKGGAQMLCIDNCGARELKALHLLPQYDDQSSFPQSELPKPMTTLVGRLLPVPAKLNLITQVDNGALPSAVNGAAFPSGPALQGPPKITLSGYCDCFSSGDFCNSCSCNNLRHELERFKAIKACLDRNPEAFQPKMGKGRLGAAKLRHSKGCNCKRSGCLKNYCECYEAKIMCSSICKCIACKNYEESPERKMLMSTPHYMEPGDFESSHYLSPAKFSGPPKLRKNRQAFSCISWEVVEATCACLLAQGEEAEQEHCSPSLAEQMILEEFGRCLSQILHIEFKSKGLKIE
The test is described as follows: co-IP; HEK293T co-transfected with MYC-tagged MTL5 and GFP-tagged partner; NP-40 buffer lysate, Myc-Tag magnetic beads, overnight at 4°C; Western blot.

The target in test [2] is BD-LIN9-C (341–559 aa) (mouse). Briefly: two-hybrid; AD prey in Y187 mated with BD bait in AH109; growth on -LW, -LWH with 5 mM 3-AT and -LWHA plates at 30°C for 3-5 days.
Test [3] has as its target BD-LIN9 (mouse). The test is described as above.

No constants are given. Whether binding was seen depends on the method and setting. A result given as binding can be weak or reduced; the word gives no strength. Tags and fused reporters may be left off the sequences shown. For part of these data: In cells and extracts the contact can be indirect.

For the molecule GFP-LIN9 (mouse), in test [1], the binding result was “binds”.

B1: AD-MTL5-C (371–475 aa) (domain or fragment, UniProt Q9WTJ6-1 371-475)
chain: EESPERKMLMSTPHYMEPGDFESSHYLSPAKFSGPPKLRKNRQAFSCISWEVVEATCACLLAQGEEAEQEHCSPSLAEQMILEEFGRCLSQILHIEFKSKGLKIE
For B1, the binding entry in test [2] and in test [3] was “binds” throughout.

B2: AD-MTL5-M (251–370 aa) (domain or fragment, UniProt Q9WTJ6-1 251-370)
chain: ALPSAVNGAAFPSGPALQGPPKITLSGYCDCFSSGDFCNSCSCNNLRHELERFKAIKACLDRNPEAFQPKMGKGRLGAAKLRHSKGCNCKRSGCLKNYCECYEAKIMCSSICKCIACKNY
For the molecule B2, the binding result in test [3] is on record as “no binding”.

B3: AD-MTL5-C2 (419–442 aa) (domain or fragment, UniProt Q9WTJ6-1 419-442)
chain: SWEVVEATCACLLAQGEEAEQEHC
As to B3, the binding entry in test [2] was “no binding”.

B4: AD-MTL5-C1 (371–418 aa) (domain or fragment, UniProt Q9WTJ6-1 371-418)
chain: EESPERKMLMSTPHYMEPGDFESSHYLSPAKFSGPPKLRKNRQAFSCI
Take B4: the binding result in test [2] is listed as “no binding”.

B5: AD-MTL5-C3 (443–475 aa) (domain or fragment, UniProt Q9WTJ6-1 443-475)
chain: SPSLAEQMILEEFGRCLSQILHIEFKSKGLKIE
With B5, in test [2], the binding result is recorded as “binds”.

B6: AD-MTL5-N (1–250 aa) (domain or fragment, UniProt Q9WTJ6-1 1-250)
chain: MEDALLGAMTGPEDELGAELFGSERVFADGLALSPAGGAADRDELPVLADAYLGATEPGEPLLRALSPPPGAEVPAALLGDFPGLPELRSPDDAAPPPAYSVHVLSSLLPGARGPALLPLSAGVRVIPVEIKEAGGSVPGGSPEDAAFQAPLAQESCCKFPSSQEAEEASSCPRKKDSSPMVICQLKGGAQMLCIDNCGARELKALHLLPQYDDQSSFPQSELPKPMTTLVGRLLPVPAKLNLITQVDNG
B6: the binding entry in test [3] is reported as “no binding”.

B7: AD-MTL5 (protein, UniProt Q9WTJ6-1 1-475)
chain: T1 sequence
Consider B7, for which, in test [3], the binding entry is reported as “binds”.
